Tags and fusion partners may be left off the protein sequences shown.

The target in the data set is T1, SbtR (Thermus thermophilus HB8) (UniProt Q5SLX6).
T1 sequence (looked up): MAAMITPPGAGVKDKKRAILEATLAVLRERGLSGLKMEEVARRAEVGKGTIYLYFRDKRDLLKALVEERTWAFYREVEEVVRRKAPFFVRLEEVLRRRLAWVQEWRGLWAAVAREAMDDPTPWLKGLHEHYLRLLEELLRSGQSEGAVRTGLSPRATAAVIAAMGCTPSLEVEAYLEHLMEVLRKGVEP
Description: EMSA. To be noted: S2 complex, apparent; EMSA/REPA: 50 mM K acetate, 20 mM Tris acetate, 10 mM Mg acetate, BSA (CutSmart), pH 7.9, binding 55 C 20 min (REPA cleavage 37 C); recombinant protein; residues 1-189; label: 5' IRDye700 on strand 1. (Mobility shift assays separate free from complexed probe on a gel.)

As for “GCCCTGACTGGCCAGTCACCCG (double strand) [SbtR mini probe 22-bp]”, the Kd was found to be 30 nM.

(Values after publication PMC4948773, “Identification of Preferred DNA-Binding Sites for the Thermus thermophilus Transcriptional Regulator SbtR by the Combinatorial Approach REPSA” (PLoS ONE, 2016).)
